Earlier results in patent publication US6352996B1, “Liposomal prodrugs comprising derivatives of camptothecin and methods of treating cancer using these prodrugs” (priority 1999, dated 2002).
For at least one compound, name, drawing or mass did not settle the structure.

Conditions: cited from earlier work

CC[C@@](O)(C(=O)[O-])c1cc2n(c(=O)c1CO)Cc1cc3ccccc3nc1-2.[Na+] [sodium carboxylate salt]
potency relative to native camptothecin with the closed lactone ring intact: 10%
